Results on 35 targets are retold here after the supplement of paper PMC10849652.

Sequences of proteins named here, by UniProt entry; tags and fusion partners are left off. A change or cut given only in a name is not applied to a line headed by its entry.
UniProt P54920: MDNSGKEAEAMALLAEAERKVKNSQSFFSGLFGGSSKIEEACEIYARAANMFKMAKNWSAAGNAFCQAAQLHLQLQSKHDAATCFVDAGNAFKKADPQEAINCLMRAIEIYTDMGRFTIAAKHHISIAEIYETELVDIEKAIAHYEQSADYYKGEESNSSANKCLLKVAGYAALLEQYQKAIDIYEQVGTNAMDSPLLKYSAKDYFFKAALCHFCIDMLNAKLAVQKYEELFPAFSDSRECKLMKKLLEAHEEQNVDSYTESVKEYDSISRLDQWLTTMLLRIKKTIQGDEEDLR
UniProt O95167, whole entry, looked up: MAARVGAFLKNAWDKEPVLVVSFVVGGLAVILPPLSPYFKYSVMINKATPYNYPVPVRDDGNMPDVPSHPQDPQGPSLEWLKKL
UniProt O75306, whole entry, looked up: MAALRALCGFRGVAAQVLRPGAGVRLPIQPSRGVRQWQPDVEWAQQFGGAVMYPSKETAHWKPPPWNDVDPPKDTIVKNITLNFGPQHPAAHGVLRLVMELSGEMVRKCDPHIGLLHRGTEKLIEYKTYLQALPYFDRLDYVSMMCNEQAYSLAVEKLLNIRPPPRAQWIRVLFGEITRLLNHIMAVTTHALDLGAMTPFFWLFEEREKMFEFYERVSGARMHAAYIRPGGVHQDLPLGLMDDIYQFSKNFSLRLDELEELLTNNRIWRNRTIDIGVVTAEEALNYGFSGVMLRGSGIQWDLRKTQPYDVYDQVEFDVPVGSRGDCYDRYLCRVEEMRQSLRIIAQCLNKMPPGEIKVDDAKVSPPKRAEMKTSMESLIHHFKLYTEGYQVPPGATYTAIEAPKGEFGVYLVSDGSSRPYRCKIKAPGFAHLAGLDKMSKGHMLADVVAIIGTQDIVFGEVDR
UniProt Q7L592: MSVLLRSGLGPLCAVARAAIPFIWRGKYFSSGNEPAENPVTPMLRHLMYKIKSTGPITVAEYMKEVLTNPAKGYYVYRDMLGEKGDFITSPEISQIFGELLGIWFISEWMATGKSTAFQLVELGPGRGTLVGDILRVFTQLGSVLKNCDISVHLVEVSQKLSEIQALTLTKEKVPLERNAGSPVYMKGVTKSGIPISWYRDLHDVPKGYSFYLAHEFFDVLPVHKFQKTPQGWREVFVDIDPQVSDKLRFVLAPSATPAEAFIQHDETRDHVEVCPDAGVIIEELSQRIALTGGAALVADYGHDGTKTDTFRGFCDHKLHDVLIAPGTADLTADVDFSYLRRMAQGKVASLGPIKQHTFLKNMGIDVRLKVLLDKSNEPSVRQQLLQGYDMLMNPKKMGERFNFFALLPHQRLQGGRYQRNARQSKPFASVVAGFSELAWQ
UniProt Q9GZZ1: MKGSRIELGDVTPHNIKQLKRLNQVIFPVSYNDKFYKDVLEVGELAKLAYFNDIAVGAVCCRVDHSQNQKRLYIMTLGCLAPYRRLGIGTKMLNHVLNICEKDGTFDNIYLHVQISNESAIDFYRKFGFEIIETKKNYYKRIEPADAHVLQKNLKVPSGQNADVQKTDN
UniProt Q13459: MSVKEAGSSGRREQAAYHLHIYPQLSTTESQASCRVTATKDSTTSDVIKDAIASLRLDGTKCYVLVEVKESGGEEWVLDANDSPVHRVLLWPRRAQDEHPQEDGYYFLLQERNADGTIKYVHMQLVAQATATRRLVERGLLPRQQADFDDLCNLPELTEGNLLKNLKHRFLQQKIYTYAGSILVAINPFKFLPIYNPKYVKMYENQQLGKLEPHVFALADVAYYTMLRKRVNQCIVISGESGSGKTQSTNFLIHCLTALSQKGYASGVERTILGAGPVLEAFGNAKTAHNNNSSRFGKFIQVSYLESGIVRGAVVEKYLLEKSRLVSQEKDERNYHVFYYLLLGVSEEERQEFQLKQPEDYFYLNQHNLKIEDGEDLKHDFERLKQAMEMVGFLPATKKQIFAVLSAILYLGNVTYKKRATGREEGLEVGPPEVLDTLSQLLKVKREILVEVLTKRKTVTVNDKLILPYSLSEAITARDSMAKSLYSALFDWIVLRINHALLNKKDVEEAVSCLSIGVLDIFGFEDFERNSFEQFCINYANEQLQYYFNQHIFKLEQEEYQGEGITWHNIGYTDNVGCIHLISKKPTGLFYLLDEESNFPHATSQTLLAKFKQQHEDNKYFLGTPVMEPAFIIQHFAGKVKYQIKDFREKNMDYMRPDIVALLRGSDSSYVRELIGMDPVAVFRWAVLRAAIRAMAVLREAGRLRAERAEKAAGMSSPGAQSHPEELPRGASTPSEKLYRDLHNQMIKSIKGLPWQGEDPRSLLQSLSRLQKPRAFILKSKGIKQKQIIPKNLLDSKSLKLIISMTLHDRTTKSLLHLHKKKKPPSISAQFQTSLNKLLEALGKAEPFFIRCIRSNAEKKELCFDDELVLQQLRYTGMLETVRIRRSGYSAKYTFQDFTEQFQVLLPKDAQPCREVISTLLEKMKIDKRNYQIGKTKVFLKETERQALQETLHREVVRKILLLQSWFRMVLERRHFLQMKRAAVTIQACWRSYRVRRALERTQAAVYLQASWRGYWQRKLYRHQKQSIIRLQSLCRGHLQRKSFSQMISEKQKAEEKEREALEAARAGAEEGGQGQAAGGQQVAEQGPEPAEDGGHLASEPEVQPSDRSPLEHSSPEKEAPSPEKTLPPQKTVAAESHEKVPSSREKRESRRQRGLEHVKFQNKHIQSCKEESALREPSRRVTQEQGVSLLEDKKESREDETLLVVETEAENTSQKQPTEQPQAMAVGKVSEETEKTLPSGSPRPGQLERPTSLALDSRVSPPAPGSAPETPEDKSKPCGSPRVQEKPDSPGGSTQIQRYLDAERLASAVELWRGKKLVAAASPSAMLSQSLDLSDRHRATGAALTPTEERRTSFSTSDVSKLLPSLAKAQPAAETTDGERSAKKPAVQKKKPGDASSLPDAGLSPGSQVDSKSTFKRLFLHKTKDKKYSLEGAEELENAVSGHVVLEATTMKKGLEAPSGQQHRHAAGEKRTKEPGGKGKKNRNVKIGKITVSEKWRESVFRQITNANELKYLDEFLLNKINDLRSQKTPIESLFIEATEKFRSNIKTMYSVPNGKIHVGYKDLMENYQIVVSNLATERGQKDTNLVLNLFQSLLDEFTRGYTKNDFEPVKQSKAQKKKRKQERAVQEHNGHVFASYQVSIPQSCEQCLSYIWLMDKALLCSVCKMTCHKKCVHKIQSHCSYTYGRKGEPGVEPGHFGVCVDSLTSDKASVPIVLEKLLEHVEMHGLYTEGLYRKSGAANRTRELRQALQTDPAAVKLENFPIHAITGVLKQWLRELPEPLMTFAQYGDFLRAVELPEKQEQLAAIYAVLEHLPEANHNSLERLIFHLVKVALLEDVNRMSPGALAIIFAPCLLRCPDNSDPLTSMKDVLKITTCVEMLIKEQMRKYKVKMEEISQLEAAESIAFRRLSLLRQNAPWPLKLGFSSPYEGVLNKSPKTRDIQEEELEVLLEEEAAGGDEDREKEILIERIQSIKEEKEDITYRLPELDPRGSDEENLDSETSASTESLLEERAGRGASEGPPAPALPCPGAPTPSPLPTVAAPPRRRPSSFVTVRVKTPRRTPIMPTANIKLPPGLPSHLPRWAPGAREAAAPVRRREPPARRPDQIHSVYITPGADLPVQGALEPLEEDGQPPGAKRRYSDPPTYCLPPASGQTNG
UniProt Q9UN36: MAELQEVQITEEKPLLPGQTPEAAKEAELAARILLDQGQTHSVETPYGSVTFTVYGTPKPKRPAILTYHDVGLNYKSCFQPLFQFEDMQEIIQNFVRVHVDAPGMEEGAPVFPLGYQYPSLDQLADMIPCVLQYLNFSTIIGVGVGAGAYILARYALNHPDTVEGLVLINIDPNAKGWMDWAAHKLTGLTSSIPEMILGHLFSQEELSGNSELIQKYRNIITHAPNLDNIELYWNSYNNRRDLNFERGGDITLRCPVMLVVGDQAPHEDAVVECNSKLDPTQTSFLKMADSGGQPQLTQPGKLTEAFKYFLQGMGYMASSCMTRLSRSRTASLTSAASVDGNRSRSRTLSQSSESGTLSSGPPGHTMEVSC
UniProt Q6PIU2: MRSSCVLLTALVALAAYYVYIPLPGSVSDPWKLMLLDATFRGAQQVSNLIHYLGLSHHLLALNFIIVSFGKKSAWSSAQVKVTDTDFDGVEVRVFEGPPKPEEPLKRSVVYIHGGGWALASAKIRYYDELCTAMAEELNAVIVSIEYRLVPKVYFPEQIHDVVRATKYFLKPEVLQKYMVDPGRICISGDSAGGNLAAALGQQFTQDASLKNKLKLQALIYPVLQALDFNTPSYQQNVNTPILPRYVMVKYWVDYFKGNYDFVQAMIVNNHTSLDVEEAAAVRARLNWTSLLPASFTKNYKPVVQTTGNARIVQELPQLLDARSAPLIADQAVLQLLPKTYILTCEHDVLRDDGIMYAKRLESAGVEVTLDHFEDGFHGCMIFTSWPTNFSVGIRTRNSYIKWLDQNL
UniProt Q86Y39, whole entry, looked up: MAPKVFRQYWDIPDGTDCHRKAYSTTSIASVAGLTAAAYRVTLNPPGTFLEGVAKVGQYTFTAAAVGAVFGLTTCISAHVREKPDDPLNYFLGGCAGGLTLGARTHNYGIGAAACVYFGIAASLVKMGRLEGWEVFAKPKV
UniProt P41227: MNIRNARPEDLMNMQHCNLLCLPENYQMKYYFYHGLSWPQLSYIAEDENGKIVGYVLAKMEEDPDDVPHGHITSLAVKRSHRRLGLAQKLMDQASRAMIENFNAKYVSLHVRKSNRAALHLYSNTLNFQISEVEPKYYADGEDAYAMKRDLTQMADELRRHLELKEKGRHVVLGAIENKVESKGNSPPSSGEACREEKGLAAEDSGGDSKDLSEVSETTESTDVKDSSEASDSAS
UniProt Q147X3: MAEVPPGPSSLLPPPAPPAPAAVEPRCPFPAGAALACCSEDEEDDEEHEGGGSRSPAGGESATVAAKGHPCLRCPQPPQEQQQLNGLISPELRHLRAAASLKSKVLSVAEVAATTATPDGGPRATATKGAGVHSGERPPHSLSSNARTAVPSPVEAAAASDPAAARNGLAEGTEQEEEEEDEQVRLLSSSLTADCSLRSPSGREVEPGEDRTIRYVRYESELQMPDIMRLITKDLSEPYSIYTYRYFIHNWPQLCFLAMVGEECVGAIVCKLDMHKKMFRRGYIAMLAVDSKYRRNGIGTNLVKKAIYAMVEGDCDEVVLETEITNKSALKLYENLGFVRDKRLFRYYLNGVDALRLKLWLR
UniProt P52298: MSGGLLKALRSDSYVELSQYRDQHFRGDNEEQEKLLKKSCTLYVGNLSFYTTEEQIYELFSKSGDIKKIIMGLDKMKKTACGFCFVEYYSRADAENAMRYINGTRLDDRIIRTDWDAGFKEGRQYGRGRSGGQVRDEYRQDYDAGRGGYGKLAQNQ
UniProt Q9UHQ1: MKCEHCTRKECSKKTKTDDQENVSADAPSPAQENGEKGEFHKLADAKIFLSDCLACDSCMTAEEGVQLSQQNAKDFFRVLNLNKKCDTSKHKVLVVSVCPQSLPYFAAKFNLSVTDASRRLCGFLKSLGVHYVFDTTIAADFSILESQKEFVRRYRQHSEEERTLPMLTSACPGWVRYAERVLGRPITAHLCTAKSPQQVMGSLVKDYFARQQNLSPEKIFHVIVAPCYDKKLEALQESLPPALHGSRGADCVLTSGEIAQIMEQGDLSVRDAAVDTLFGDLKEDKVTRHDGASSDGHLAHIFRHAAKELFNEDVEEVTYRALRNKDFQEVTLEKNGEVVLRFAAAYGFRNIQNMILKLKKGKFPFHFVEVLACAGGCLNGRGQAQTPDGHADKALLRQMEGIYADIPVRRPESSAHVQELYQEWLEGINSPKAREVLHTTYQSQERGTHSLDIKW
UniProt Q8N183: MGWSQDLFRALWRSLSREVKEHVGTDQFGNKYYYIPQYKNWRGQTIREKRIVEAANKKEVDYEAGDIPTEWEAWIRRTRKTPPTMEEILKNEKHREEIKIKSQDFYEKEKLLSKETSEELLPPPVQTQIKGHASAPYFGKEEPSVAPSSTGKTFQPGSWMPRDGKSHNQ
UniProt Q9NX14, whole entry, looked up: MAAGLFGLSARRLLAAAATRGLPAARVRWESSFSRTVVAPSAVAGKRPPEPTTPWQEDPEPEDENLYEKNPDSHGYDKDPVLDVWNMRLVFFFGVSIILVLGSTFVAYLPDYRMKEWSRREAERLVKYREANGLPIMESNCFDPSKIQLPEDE
UniProt O95168, whole entry, looked up: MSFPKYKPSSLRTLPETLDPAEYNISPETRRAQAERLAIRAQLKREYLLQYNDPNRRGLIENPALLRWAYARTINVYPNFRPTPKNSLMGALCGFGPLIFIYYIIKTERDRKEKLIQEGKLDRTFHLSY
UniProt P17050: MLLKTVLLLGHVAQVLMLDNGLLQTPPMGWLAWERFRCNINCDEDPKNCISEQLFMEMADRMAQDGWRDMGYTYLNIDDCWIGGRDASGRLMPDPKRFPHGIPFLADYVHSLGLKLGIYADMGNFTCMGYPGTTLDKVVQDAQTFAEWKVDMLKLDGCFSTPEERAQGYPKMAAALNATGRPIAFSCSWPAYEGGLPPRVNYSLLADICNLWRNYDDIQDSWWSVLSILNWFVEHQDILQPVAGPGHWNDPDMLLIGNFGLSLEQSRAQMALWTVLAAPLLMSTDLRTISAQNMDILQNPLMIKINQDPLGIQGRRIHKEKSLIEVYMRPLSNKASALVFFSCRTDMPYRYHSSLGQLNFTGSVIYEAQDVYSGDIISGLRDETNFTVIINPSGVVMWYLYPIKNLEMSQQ

The list shows a part of the results.

Compound in the experiment: c1cn2cc(-c3ccc4cn[nH]c4c3)nc(Nc3ccc(N4CCOCC4)cc3)c2n1 [entospletinib]
Briefly: log2 fold change, soluble protein after heating vs DMSO (PISA); higher = thermal stabilisation; K562 cells, 10 uM, 30 min; active = over 0.2 and 3.5 SD of the protein, either way, in both replicates (recomputed). The essentials: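 K562 cells at 2×10^6 cells/mL were exposed to 10 μM compound for 30 min, then aliquots were heated for 3 min across 48°C-58°C, pooled, and extracted in PBS containing 0.5% NP-40 at 4°C. The supernatant after 21,000xg for 90 min was taken as soluble protein and measured by TMTpro 16plex LC-MS/MS with channel sums equalised. Thermal stability is reported relative to control samples, with values from duplicates. Fold changes are given on a log2 scale.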
Turning to NAPA (UniProt P54920), the log2 fold change is inactive: -0.02. Next, MZT2A (UniProt Q6P582): inactive: -0.037; NBAS (UniProt A2RRP1): inactive: 0.133. NEDD8 (UniProt Q15843): the log2 fold change is inactive: 0.087.

Take NCOA3 (UniProt Q9Y6Q9): the log2 fold change was inactive: 0.258. As to NDUFA3 (UniProt O95167), the log2 fold change is inactive: 0.107.

As to NADK (UniProt O95544), the log2 fold change is inactive: -0.005. Next, NDUFS2 (UniProt O75306): inactive: -0.018. Next, NEFH (UniProt P12036): inactive: 0.166.

Consider NDUFAF7 (UniProt Q7L592), for which the log2 fold change was inactive: -0.026. Next, NDUFAB1 (UniProt O14561): inactive: 0.409. Take NAA50 (UniProt Q9GZZ1): the log2 fold change was inactive: -0.049.

Consider NAXD (UniProt Q8IW45), for which the log2 fold change is inactive: 0.008. The result for N6AMT1 (UniProt Q9Y5N5) reads inactive: -0.005; that for MYO9B (UniProt Q13459), inactive: 0.085.

As for NCAPH2 isoform 4 (UniProt Q6IBW4), the log2 fold change is inactive: -0.019.

For NDUFV2 (UniProt P19404), the log2 fold change was inactive: -0.034. Next, NDRG2 (UniProt Q9UN36): inactive: -0.04; NAA40 (UniProt Q86UY6): inactive: 0.263. Next, NCEH1 isoform 2 (UniProt Q6PIU2): inactive: 0.056; NDUFA11 (UniProt Q86Y39): inactive: -0.009; NAA10 (UniProt P41227): inactive: -0.028. Next, NAA30 (UniProt Q147X3): inactive: 0.004; NDUFAF5 (UniProt Q5TEU4): inactive: 0.023. Turning to NCBP2 (UniProt P52298), the log2 fold change was inactive: 0.002. As for NDC1 (UniProt Q9BTX1), the log2 fold change was inactive: 0.029. The result for NARF (UniProt Q9UHQ1) reads inactive: -0.03; that for NADSYN1 (UniProt Q6IA69), inactive: 0.232; that for NDUFAF2 (UniProt Q8N183), inactive: 0.015. Next, NDUFB11 isoform 2 (UniProt Q9NX14): inactive: -0.006; NCBP1 (UniProt Q09161): inactive: 0.013; NDUFB4 (UniProt O95168): inactive: 0.085. As for NDRG3 (UniProt Q9UGV2), the log2 fold change was inactive: -0.029. The result for NAGA (UniProt P17050) reads inactive: 0.054; that for NCLN (UniProt Q969V3), inactive: -0.006.
